Results from publication doi:10.1101/2023.05.06.539691.
Results are given in words; binding and its absence hold for the method and conditions named. Binding seen in cells or lysates may run through a third protein. Some results given as binding are weak or reduced against the parent protein; the word gives no strength. Sequences can lack the tags named with a protein.

B1: c-REL (as detected in the FLAG-OTUD4 / FLAG-OTUD6B immunoprecipitations of Fig. 3C) (protein, UniProt Q04864-1 1-619)
chain: MASGAYNPYIEIIEQPRQRGMRFRYKCEGRSAGSIPGEHSTDNNRTYPSIQIMNYYGKGKVRITLVTKNDPYKPHPHDLVGKDCRDGYYEAEFGQERRPLFFQNLGIRCVKKKEVKEAIITRIKAGINPFNVPEKQLNDIEDCDLNVVRLCFQVFLPDEHGNLTTALPPVVSNPIYDNRAPNTAELRICRVNKNCGSVRGGDEIFLLCDKVQKDDIEVRFVLNDWEAKGIFSQADVHRQVAIVFKTPPYCKAITEPVTVKMQLRRPSDQEVSESMDFRYLPDEKDTYGNKAKKQKTTLLFQKLCQDHVETGFRHVDQDGLELLTSGDPPTLASQSAGITVNFPERPRPGLLGSIGEGRYFKKEPNLFSHDAVVREMPTGVSSQAESYYPSPGPISSGLSHHASMAPLPSSSWSSVAHPTPRSGNTNPLSSFSTRTLPSNSQGIPPFLRIPVGNDLNASNACIYNNADDIVGMEASSMPSADLYGISDPNMLSNCSVNMMTTSSDSMGETDNPRLLSMNLENPSCNSVLDPRDLRQLHQMSSSSMSAGANSNTTVFVSQSDAFEGSDFSCADNSMINESGPSNSTNPNSHGFVQDSQYSGIGSMQNEQLSDSFPYEFFQV
B2: non-tagged OTUD4 (enzyme, UniProt Q01804-1 1-1114)
chain: MEAAVGVPDGGDQGGAGPREDATPMDAYLRKLGLYRKLVAKDGSCLFRAVAEQVLHSQSRHVEVRMACIHYLRENREKFEAFIEGSFEEYLKRLENPQEWVGQVEISALSLMYRKDFIIYREPNVSPSQVTENNFPEKVLLCFSNGNHYDIVYPIKYKESSAMCQSLLYELLYEKVFKTDVSKIVMELDTLEVADEDNSEISDSEDDSCKSKTAAAAADVNGFKPLSGNEQLKNNGNSTSLPLSRKVLKSLNPAVYRNVEYEIWLKSKQAQQKRDYSIAAGLQYEVGDKCQVRLDHNGKFLNADVQGIHSENGPVLVEELGKKHTSKNLKAPPPESWNTVSGKKMKKPSTSGQNFHSDVDYRGPKNPSKPIKAPSALPPRLQHPSGVRQHAFSSHSSGSQSQKFSSEHKNLSRTPSQIIRKPDRERVEDFDHTSRESNYFGLSPEERREKQAIEESRLLYEIQNRDEQAFPALSSSSVNQSASQSSNPCVQRKSSHVGDRKGSRRRMDTEERKDKDSIHGHSQLDKRPEPSTLENITDDKYATVSSPSKSKKLECPSPAEQKPAEHVSLSNPAPLLVSPEVHLTPAVPSLPATVPAWPSEPTTFGPTGVPAPIPVLSVTQTLTTGPDSAVSQAHLTPSPVPVSIQAVNQPLMPLPQTLSLYQDPLYPGFPCNEKGDRAIVPPYSLCQTGEDLPKDKNILRFFFNLGVKAYSCPMWAPHSYLYPLHQAYLAACRMYPKVPVPVYPHNPWFQEAPAAQNESDCTCTDAHFPMQTEASVNGQMPQPEIGPPTFSSPLVIPPSQVSESHGQLSYQADLESETPGQLLHADYEESLSGKNMFPQPSFGPNPFLGPVPIAPPFFPHVWYGYPFQGFIENPVMRQNIVLPSDEKGELDLSLENLDLSKDCGSVSTVDEFPEARGEHVHSLPEASVSSKPDEGRTEQSSQTRKADTALASIPPVAEGKAHPPTQILNRERETVPVELEPKRTIQSLKEKTEKVKDPKTAADVVSPGANSVDSRVQRPKEESSEDENEVSNILRSGRSKQFYNQTYGSRKYKSDWGYSGRGGYQHVRSEESWKGQPSRSRDEGYQYHRNVRGRPFRGDRRRSGMGDGHRGQHT

Legend:
Experiment in all cases: co-IP
FLAG-OTUD6B = molecular target: T1, FLAG-OTUD6B (UniProt Q8N6M0)
T1 sequence: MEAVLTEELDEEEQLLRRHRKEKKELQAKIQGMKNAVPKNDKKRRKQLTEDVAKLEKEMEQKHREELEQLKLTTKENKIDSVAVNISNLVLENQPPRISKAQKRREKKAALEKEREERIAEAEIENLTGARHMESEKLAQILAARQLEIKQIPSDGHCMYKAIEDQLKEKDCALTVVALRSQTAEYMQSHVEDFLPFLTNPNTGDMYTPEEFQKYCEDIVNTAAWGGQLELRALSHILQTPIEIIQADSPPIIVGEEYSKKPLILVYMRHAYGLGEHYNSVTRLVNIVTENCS

[1] = molecular target: T2, FLAG-tagged OTUD4 (OTU domain-containing protein 4) (human) (UniProt Q01804)
T2 sequence: B2 chain

[2] = molecular target: T3, FLAG-tagged c-REL (human) (UniProt Q04864)
T3 sequence: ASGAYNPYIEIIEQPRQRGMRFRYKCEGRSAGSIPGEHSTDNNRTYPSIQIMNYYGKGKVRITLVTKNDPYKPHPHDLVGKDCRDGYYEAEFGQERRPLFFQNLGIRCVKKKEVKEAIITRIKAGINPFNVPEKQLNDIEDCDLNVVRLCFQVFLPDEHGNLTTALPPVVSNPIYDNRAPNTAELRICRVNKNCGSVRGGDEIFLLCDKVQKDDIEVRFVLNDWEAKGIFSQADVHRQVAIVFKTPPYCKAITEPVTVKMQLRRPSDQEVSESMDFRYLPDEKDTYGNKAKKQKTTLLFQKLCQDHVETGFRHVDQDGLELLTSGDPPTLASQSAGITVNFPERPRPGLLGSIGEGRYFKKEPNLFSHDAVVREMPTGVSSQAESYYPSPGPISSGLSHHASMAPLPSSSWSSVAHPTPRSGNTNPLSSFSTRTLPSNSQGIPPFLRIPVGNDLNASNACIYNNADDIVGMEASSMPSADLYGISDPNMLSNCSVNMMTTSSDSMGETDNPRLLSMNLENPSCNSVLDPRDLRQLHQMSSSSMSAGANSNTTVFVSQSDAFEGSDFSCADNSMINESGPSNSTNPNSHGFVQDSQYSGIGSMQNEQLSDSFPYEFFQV

Binder	binding (FLAG-OTUD6B)	binding [1]	binding [2]
B1	no binding	binds	
B2			binds
